Measured values reported in patent US20170189504A1, “NOVEL PEPTIDES AND COMBINATION OF PEPTIDES FOR USE IN IMMUNOTHERAPY AGAINST VARIOUS CANCERS” (immatics biotechnologies GmbH, priority 2015, published 2017).
For some assays here: Expression grades refer to the transcript from which the peptide derives; gene names, where given, were looked up from the sequence.

Experiments:
[1] = system: HLA-A*02; assay: Identification and relative LC-MS quantitation of HLA-A*02-presented tumor-associated peptides on tissue samples (presentation profiles, Tables 13A, 13B, 15, FIG. 1); set-up: species or system human; key to Presentation score NHL / Presentation score CLL / Presentation score BRCA / Presentation score AML / Presentation score GB / Presentation score NSCLC / Presentation score GBC_CCC / Presentation score UEC / Presentation score MEL / Presentation score OSCAR / Presentation score GC / Presentation score UBC / Presentation score OC / Presentation score RCC / Presentation score CRC / Presentation score PCA / Presentation score HCC / Presentation score PC / Presentation score SCLC: specifically presented on tumors (++++); very highly over-presented on tumors compared to a panel of normal tissues (+++); highly over-presented on tumors compared to a panel of normal tissues (++); over-presented on tumors compared to a panel of normal tissues (+); conditions: for Peptide Presentation on cancer entities: HLA-A*02-binding tumor-associated peptides
[2] = system: source genes (mRNA); assay: Gene and exon expression of source genes, TCGA tumor samples compared with normal tissue samples (Lonsdale, 2013) (Table 17); set-up: species or system human
[3] = system: source genes (mRNA); assay: Expression profiling of source genes by in-house RNASeq of tumor and normal tissues (Table 18, FIG. 2); set-up: species or system human; key: very highly over-expressed in tumors compared to a panel of normal tissues (+++); highly over-expressed in tumors compared to a panel of normal tissues (++); over-expressed in tumors compared to a panel of normal tissues (+); conditions: source gene of peptide

235: peptide found in MSH6 (gene looked up) (KIIDFLSAL; listed as Homo sapiens) [compound 235]
Presentation score AML ([1]; HLA-A*02 peptides, acute myeloid leukemia (N = 18) vs panel of normal tissues (N = 262)): ++++ | Presentation score NHL ([1]; HLA-A*02 peptides, non-Hodgkin lymphoma (N = 18) vs panel of normal tissues (N = 262)): ++++ | Presentation score OC ([1]; HLA-A*02 peptides, ovarian cancer (N = 20) vs panel of normal tissues (N = 262)): ++++ | Presentation score UEC ([1]; HLA-A*02 peptides, uterine cancer (N = 15) vs panel of normal tissues (N = 262)): ++++ | Peptide Presentation on cancer entities ([1]; Table 13A, cancer entities on which the peptide was found presented): OC, UEC, AML, NHL | Peptide Presentation on cancer entities ([1]; Table 13B, presentation on additional cancer entities): NSCLC, HCC, MEL, HNSCC | Over-expression category of source gene (target coverage), BLCA ([2]; BLCA = Bladder urothelial carcinoma (N = 408), same cutoff): A (>=50% of tumors above the cutoff) | Over-expression category of source gene (target coverage), BRCA ([2]; BRCA = Breast cancer (N = 1104), tumors more than 2-fold above highest 75% percentile of normal tissues): A (>=50% of tumors above the cutoff) | Over-expression category of source gene (target coverage), CHOL ([2]; CHOL = Cholangiocarcinoma (N = 36), same cutoff): A (>=50% of tumors above the cutoff) | Over-expression category of source gene (target coverage), COAD ([2]; COAD = Colon and rectal adenocarcinoma (N = 462), same cutoff): A (>=50% of tumors above the cutoff) | Over-expression category of source gene (target coverage), DLBC ([2]; DLBC = Lymphoid neoplasm diffuse large B-cell lymphoma (N = 48), same cutoff): A (>=50% of tumors above the cutoff) | Over-expression category of source gene (target coverage), ESCA ([2]; ESCA = Esophageal cancer (N = 185), same cutoff): A (>=50% of tumors above the cutoff) | Over-expression category of source gene (target coverage), GBM ([2]; GBM = Glioblastoma multiforme (N = 169), same cutoff): A (>=50% of tumors above the cutoff) | Over-expression category of source gene (target coverage), KIRC ([2]; KIRC = Clear cell kidney carcinoma (N = 534), same cutoff): A (>=50% of tumors above the cutoff) | Over-expression category of source gene (target coverage), KIRP ([2]; KIRP = Papillary kidney carcinoma (N = 291), same cutoff): B (>= 20% of tumors above the cutoff, but <50%) | Over-expression category of source gene (target coverage), LAML ([2]; LAML = Acute Myeloid Leukemia (N = 173), same cutoff): A (>=50% of tumors above the cutoff) | Over-expression category of source gene (target coverage), LGG ([2]; LGG = Lower grade glioma (N = 534), same cutoff): B (>= 20% of tumors above the cutoff, but <50%) | Over-expression category of source gene (target coverage), LIHC ([2]; LIHC = Liver hepatocellular carcinoma (N = 374), same cutoff): A (>=50% of tumors above the cutoff) | Over-expression category of source gene (target coverage), LUAD ([2]; LUAD = Lung adenocarcinoma (N = 517), same cutoff): A (>=50% of tumors above the cutoff) | Over-expression category of source gene (target coverage), LUSC ([2]; LUSC = Lung squamous cell carcinoma (N = 503), same cutoff): A (>=50% of tumors above the cutoff) | Over-expression category of source gene (target coverage), OV ([2]; OV = Ovarian serous cystadenocarcinoma (N = 309), same cutoff): A (>=50% of tumors above the cutoff) | Over-expression category of source gene (target coverage), PAAD ([2]; PAAD = Pancreatic ductal adenocarcinoma (N = 179), same cutoff): B (>= 20% of tumors above the cutoff, but <50%) | Over-expression category of source gene (target coverage), PRAD ([2]; PRAD = Prostate adenocarcinoma (N = 498), same cutoff): A (>=50% of tumors above the cutoff) | Over-expression category of source gene (target coverage), READ ([2]; READ = Colon and rectal adenocarcinoma (N = 167), same cutoff): A (>=50% of tumors above the cutoff) | Over-expression category of source gene (target coverage), SKCM ([2]; SKCM = Skin cutaneous melanoma (N = 473), same cutoff): A (>=50% of tumors above the cutoff) | Over-expression category of source gene (target coverage), STAD ([2]; STAD = Stomach adenocarcinoma (N = 415), same cutoff): B (>= 20% of tumors above the cutoff, but <50%) | Over-expression category of source gene (target coverage), UCEC ([2]; UCEC = Uterine corpus endometrial carcinoma (N = 546), same cutoff): A (>=50% of tumors above the cutoff) | Expression score BRCA ([3]; BRCA tumors vs panel of normal tissues): + | Expression score AML ([3]; acute myeloid leukemia (N = 11) vs panel of normal tissues): + | Expression score OSCAR ([3]; esophageal cancer incl. gastric-esophageal junction (N = 11) vs panel of normal tissues): + | Expression score NHL ([3]; non-Hodgkin lymphoma (N = 10) vs panel of normal tissues): + | Expression score NSCLC ([3]; non-small cell lung cancer (N = 11) vs panel of normal tissues): + | Expression score OC ([3]; ovarian cancer (N = 12) vs panel of normal tissues): ++ | Expression score SCLC ([3]; small cell lung cancer (N = 10) vs panel of normal tissues): ++ | Expression score UBC ([3]; urinary bladder cancer (N = 10) vs panel of normal tissues): +
